{
  "source": "patent US20230157993A1",
  "about": "“PHARMACEUTICAL COMPOSITION FOR TREATING OR PREVENTING ALOPECIA INCLUDING DECURSIN” (University-Industry Cooperation Group of Kyung Hee …, priority 2021, published 2023)",
  "tested_on": "CYP-induced alopecia mice",
  "experiment": "Skin monitoring of hair growth with a digital dermatoscope in CYP-induced alopecia mice",
  "format": "in vivo, C57BL/6J mice",
  "settings": "topical, all concentrations of decursin (1, 10, 100 μM) or 0.1% DEX, FIG. 1",
  "experimental": "All animal testing procedures were approved by the Laboratory Animal Care and Use Committee of Kyung Hee University (KHUASP(SE)-13-046). 5-week-old male C57BL/6J mice were purchased from Raonbio Co., Ltd. (Yongin, Korea). All mice were kept in plastic cages at 22±1° C. under 50±5% humidity with 12 hours of light-dark cycles. After 1 week of adaptation, mice were randomly assigned to 6 groups: (1) CTR, normal control group, (2) CYP, cyclophosphamide-induced alopecia group, (3) DEX, dexamethasone (DEX) treated in CYP-induced alopecia mice as positive controls, (4) D1, 1 μM decursin treated in CYP-induced alopecia mice, (5) D10, 10 μM decursin treated in CYP-induced alopecia mice, and (6) D100, 100 μM decursin treated in CYP-induced alopecia mice.\nTo synchronize the phases of the hair growth cycle, the dark hairs on the dorsal skin of all mice except the CTR group were shaved on day 0 using a shaving cream. 9 days later, 150 mg/kg of CYP (Sigma-Aldrich, MO, USA) was dissolved in saline and injected one time intraperitoneally into all mice except the CTR group. Injection of CYP induced the stage of hair follicles to turn into dystrophic catagen. From day 9 to day 16, 100 μL of 1, 10 and 100 μM decursin (Sigma-Aldrich) in saline containing 0.1% dimethyl sulfoxide was topically treated onto the shaved dorsal skin once a day. […]",
  "note": "At least one structure is not confirmed: it was looked up by name or label, or the drawing left a doubt.",
  "data": [
    {"smiles": "C[C@@H]1C[C@H]2[C@@H]3CCC4=CC(=O)C=C[C@]4(C)[C@@]3(F)[C@@H](O)C[C@]2(C)[C@@]1(O)C(=O)CO", "note": "[DEX, dexamethasone, reference compound]", "values": [
      {"measurement": "hair growth on the dorsal side (dermatoscope), compared to CYP group", "value": "hair growth was observed"}
    ]}
  ]
}
